Laboratory results taken from paper PMC6397875.
No constants are given. Whether binding was seen depends on the method and setting. Binding calls can cover weak binding; strength is not graded here.

Amino acid sequences for entries named in this document (tags omitted). A change or cut given only in a name is not applied to a line headed by its entry.
UniProt A0A384WD26: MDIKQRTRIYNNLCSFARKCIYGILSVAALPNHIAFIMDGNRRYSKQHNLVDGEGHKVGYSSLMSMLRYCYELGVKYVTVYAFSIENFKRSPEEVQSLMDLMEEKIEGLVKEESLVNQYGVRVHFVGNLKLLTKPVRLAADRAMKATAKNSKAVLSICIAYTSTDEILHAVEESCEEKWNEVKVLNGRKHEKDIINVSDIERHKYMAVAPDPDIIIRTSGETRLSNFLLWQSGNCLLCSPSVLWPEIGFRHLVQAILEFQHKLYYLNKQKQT
UniProt A0A384WD98: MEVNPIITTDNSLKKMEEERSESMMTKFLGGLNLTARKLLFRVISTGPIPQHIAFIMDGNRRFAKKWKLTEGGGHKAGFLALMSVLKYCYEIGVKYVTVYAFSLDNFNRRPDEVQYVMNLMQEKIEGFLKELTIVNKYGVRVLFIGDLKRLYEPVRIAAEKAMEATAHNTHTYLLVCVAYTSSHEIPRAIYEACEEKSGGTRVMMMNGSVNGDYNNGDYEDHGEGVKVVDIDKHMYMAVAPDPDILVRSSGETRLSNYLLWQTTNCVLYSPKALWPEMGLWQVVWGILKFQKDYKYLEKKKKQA
UniProt A0A384WD08: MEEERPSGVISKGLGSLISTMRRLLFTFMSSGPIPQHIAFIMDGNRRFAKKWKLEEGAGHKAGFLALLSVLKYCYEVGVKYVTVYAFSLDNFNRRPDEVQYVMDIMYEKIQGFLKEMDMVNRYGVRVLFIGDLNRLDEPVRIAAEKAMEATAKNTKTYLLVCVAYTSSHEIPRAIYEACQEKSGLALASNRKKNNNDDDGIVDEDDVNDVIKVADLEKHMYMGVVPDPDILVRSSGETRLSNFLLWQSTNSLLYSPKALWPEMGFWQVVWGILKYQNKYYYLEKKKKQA

biological target: PaCBP-Cub-LexA-VP16 (Parthenium argentatum (guayule)); assay: two-hybrid; split-ubiquitin membrane yeast two-hybrid (MYTH) in strain THY.AP4; bait PaCBP-Cub-LexA-VP16, preys fused to NubG; growth on SC-Leu-Trp-Ade-His with 5, 10 or 25 mM 3-AT, 3 days at 30°C; β-galactosidase (ONPG, Miller units)

binding, binds:
NubG-HA-PaCPT1 (from UniProt A0A384WD26) (enzyme), NubG-HA-PaCPT3 (from UniProt A0A384WD98) (enzyme), NubG-HA-PaCPT2 (from UniProt A0A384WD08) (enzyme)
